Test results: patent publication US20070249682A1, “Novel CD40:CD154 binding interruptor compounds and use thereof to treat immunological complications” (priority 2000, published 2007)
Some of these results come from one statement about several compounds together.

By UniProt entry, the sequences of proteins in these tests, tags left out. Residues count along the entry.
UniProt P01375, 77-233 limits assumed, species assumed: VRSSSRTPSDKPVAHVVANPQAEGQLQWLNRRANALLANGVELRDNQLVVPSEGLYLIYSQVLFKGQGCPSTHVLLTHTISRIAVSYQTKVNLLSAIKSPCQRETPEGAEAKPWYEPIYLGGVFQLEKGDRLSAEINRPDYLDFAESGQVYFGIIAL

Biological target: T1, TNF-α:TNFRp60 interaction (Homo sapiens, UniProt P01375)
T1 construct: purchased R&D System
Experiment: Binding assay (ELISA): compound inhibits binding of biotin-TNF-α to immobilized TNFRp60 (Example 8)
Conditions: assay of Example 8, top concentration 125 μM; read-out: IC50 for TNF-α:TNFRp60 binding interruption
Source text: IC50, as used herein, is the concentration at which a compound interrupts the interaction of a protein and its receptor to 50% interaction in the assay shown in Example 7 (for interruption of CD40:CD154 interaction) and Example 8 (for interruption of TNF-α:TNFRp60 interaction). Examples of such protein and receptor pairs are CD40:CD154 and TNF-α:TNFRp60.
Binding Assay to Assess whether a Compound Binds to TNF-α and Inhibits TNF-α/TNFRp60 Interaction
1) Ninety-six well plates of Nunc Maxisorp were coated with 100 μl/well of 0.6 ug/ml tumor necrosis factor receptor p60 (TNFRp60) (Browning, J. L.; Douglas, I.; Ngam-ek, A.; Bourdon, P. R.; Ehrenfels, B. N.; Miatkowski, K.; Zafari, M.; Yampaglia, A. M.; Lawton, P.; Meier, W.; Benjamin, C. P.; Hession, C. J. Immunol. 1995, 154, 33-46) in PBS, pH 7.2, covered with plate sealers (Costar, Cat. No. 3095) and stored overnight at 4° C.
2) The coated plates were shook out and blotted dry.
3) TNFRp60-coated plates were blocked with 300 μl per well of PBS (0.05% Tween-20, 1% BSA, made from media prep) at 4° C. for one hour. Plates were stored for 3 weeks at 4° C.
4) The plates were washed 3× with PBS+0.05% Tween-20) by plate washer at room temperature.
5) The plates were optionally blotted dry.
6) Primary Screening of compounds
Compounds were titrated in 100 mM Hepes+0.005% BSA, pH 7.2 in Titertube (Bio-Rad Laboratories) and then 50 μl of titrated compounds was added into each well of the plate.
IC50 parameters: One 7 point curve per compound was generated where each point was run in triplicate. A 2× dilution series was used to generate the curve. The top concentration in assay of test compound was 125 μM.
50 μl/well of 8 ng/ml Biotin-TNF-α (R&D System) in 100 mM Hepes+0.005% BSA, pH 7.2 were added. The final concentration of Biotin-TNFα was 4 ng/ml. It was mixed with compound in each well in the plate. The plates were covered with sealer and incubated one hour at RT.
7) The plates were washed 3× by plate washer with PBS+0.05% Tween-20 at RT.
8) The plates were optionally blotted dry.
9) 100 μl of Streptavidin-HRP (diluted at 1:300,000 in PBS+0.05% Tween-20) was added to each well. The plates were covered with sealer and incubated one hour at RT.
10) The plates were washed by plate washer 3× at RT.
11) The plates were optionally blotted dry.
12) 100 μl/well of TMB(1-component) (Kirkegarrd & Perry Labs, Prod #50-76-04) were added at RT and incubated about 10 min in dark environment.
13) 100 μl/well of 0.18M H2SO4 was added to stop the reaction.
14) The plates were read within 30 minutes of adding stop reagent at […] by microplate reader (Molecular Devices Co.) […]
Compounds that blocked TNF-α/TNFRp60 interaction prevented TNF-α from binding to immobilized TNFRp60 and gave a low absorbance reading. […]

SMILES: CCC(C)C(NC(=O)c1cc(-c2cc(C(=O)NCc3ccccc3Br)nc(C(=O)N3CCCC3CN3CCCC3)c2)cc(C(=O)N2CCCC2CN2CCCC2)n1)C(=O)O (stereo not shown) [Compound 1]
- IC50: > 125 µM

SMILES: CCC(C)C(NC(=O)c1cc(-c2cc(C(=O)NCc3cccc(OC)c3OC)nc(C(=O)N3CCCC3CN3CCCC3)c2)cc(C(=O)N2CCCC2CN2CCCC2)n1)C(=O)O (stereo not shown) [Compound 2]
- IC50: > 125 µM

SMILES: CCC(C)C(NC(=O)c1cc(-c2cc(C(=O)NC(C)(C)Cc3ccc(F)cc3)nc(C(=O)N3CCCC3CN3CCCC3)c2)cc(C(=O)N2CCCC2CN2CCCC2)n1)C(=O)O (stereo not shown) [Compound 3]
- IC50: > 125 µM

SMILES: O=C(NCCCc1ccccc1)c1cc(-c2cc(C(=O)NC(C(=O)O)C3CCCCC3)nc(C(=O)N3CCCC3CN3CCCC3)c2)cc(C(=O)N2CCCC2CN2CCCC2)n1 (stereo not shown) [Compound 4]
- IC50: > 125 µM
